Experimental data: PubChem BioAssay AID1259424 (University of Nebraska Medical Center, 2018)

Purpose: 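Rank knockdowns across the genome by resemblance to the KSR1 depletion profile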 (primary screen)
System: human HCT116 colon cancer cells
Reagents: siRNA pool against human genes, 50 nM
Measured: 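Six signature mRNAs by branched-DNA multiplex assay, scaled to two housekeeping genes and non-targeting median, log2; matched to mean KSR1 knockdown profile by Pearson correlation and euclidean distance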
Direction: mean correlation with KSR1 profile: higher = expression change more like KSR1 knockdown
The whole screen tested about 14,000 reagents; this is a part drawn at random. 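Higher correlation or smaller distance means closer resemblance to KSR1 loss; control wells, including KSR1 knockdowns, recur on many plates.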 Not all columns of the deposit are shown. The record does not give: the time to read-out.

Against HSD11B1 (hydroxysteroid 11-beta dehydrogenase 1), the values are mean correlation with KSR1 profile 0.136.
After knock-down of COPA (coat protein complex I subunit alpha) the results were mean correlation with KSR1 profile -0.33.
With knock-down of NR1D2 (nuclear receptor subfamily 1 group D member 2), the screen gave mean correlation with KSR1 profile 0.534.
After knock-down of HEXB (hexosaminidase subunit beta) the results were mean correlation with KSR1 profile 0.571.
Depletion of FGD6 (FYVE, RhoGEF and PH domain containing 6) gave: mean correlation with KSR1 profile 0.271.
Depletion of FMR1 (fragile X messenger ribonucleoprotein 1) came out at: mean correlation with KSR1 profile -0.117.
After knock-down of NOL9 (nucleolar protein 9) the results were mean correlation with KSR1 profile 0.655.
With knock-down of MED22 (mediator complex subunit 22), the screen gave mean correlation with KSR1 profile 0.0837.
For GJA10 (gap junction protein alpha 10), the values are mean correlation with KSR1 profile 0.69.
For PICALM (phosphatidylinositol binding clathrin assembly protein), the entry reads mean correlation with KSR1 profile 0.34.
RRAGB (Ras related GTP binding B) gave mean correlation with KSR1 profile -0.395.
ATP6V1G1 (ATPase H+ transporting V1 subunit G1) showed mean correlation with KSR1 profile -0.304.
TUSC3 (tumor suppressor candidate 3) scored mean correlation with KSR1 profile 0.79.
With knock-down of CARD8 (caspase recruitment domain family member 8), the record shows mean correlation with KSR1 profile -0.383.

3 entries from above, ordered by “mean correlation with KSR1 profile”, ascending.
RRAGB (Ras related GTP binding B) → mean correlation with KSR1 profile = -0.395
PICALM (phosphatidylinositol binding clathrin assembly protein) → mean correlation with KSR1 profile = 0.34
GJA10 (gap junction protein alpha 10) → mean correlation with KSR1 profile = 0.69

Additional records:
Against ZNF496 (zinc finger protein 496) the deposit lists mean correlation with KSR1 profile 0.664.
With knock-down of MINDY4 (MINDY lysine 48 deubiquitinase 4), the screen gave mean correlation with KSR1 profile 0.293.
MYO7A (myosin VIIA) showed mean correlation with KSR1 profile -0.393.
SESN2 (sestrin 2) scored mean correlation with KSR1 profile 0.106.
SRBD1 (S1 RNA binding domain 1) showed mean correlation with KSR1 profile -0.592.
UGT1A10 (UDP glucuronosyltransferase family 1 member A10) scored mean correlation with KSR1 profile 0.575.
Silencing of NAAA (N-acylethanolamine acid amidase) came out at: mean correlation with KSR1 profile -0.0584.
With knock-down of SSR1 (signal sequence receptor subunit 1), the record shows mean correlation with KSR1 profile -0.319.
POLG2 (DNA polymerase gamma 2, accessory subunit) gave mean correlation with KSR1 profile -0.624.
Knock-down of WNK4 (WNK lysine deficient protein kinase 4) came out at: mean correlation with KSR1 profile 0.384.
CD40 (CD40 molecule) scored mean correlation with KSR1 profile 0.738.
For PRMT1 (protein arginine methyltransferase 1) the deposit lists mean correlation with KSR1 profile -0.185.
MPZL1 (myelin protein zero like 1) showed mean correlation with KSR1 profile -0.144.
Depletion of SCAF1 (SR-related CTD associated factor 1) came out at: mean correlation with KSR1 profile -0.535.
